{
  "source": "PubChem BioAssay AID214",
  "about": "(DTP/NCI, 2004)",
  "system": "B6C3F1 mice, colon carcinoma 38 s.c., T/C",
  "experiment": "NCI In Vivo Anticancer Drug Screen. Data for tumor model Colon Carcinoma 38 (subcutaneous) in B6C3F1 mice",
  "conditions": "T/C endpoint: median tumor weight (est.), higher T/C = larger tumour; for T/C: evaluated on day 20",
  "protocol": "The antitumor activity of compounds was measured in mice bearing transplantable tumors. Survival or tumor size were measured and the results are expressed as the measurement made in the treated group (T) divided by the measurement made in the vehicle treated control group (C). The tumor model used in this assay is Colon Carcinoma 38 (subcutaneous) in B6C3F1 mice",
  "key": {"[1]": {"conditions": "dose: 25.0 mg/kg/injection, schedule: Q07DX002 (ip), vehicle: Klucel (hydroxypropylcellulose) (HPC)"}, "[2]": {"conditions": "dose: 50.0 mg/kg/injection, schedule: Q07DX002 (ip), vehicle: Klucel (hydroxypropylcellulose) (HPC)"}, "[3]": {"conditions": "dose: 100.0 mg/kg/injection, schedule: Q07DX002 (ip), vehicle: Klucel (hydroxypropylcellulose) (HPC)"}, "[4]": {"conditions": "dose: 200.0 mg/kg/injection, schedule: Q07DX002 (ip), vehicle: Klucel (hydroxypropylcellulose) (HPC)"}, "[5]": {"conditions": "dose: 400.0 mg/kg/injection, schedule: Q07DX002 (ip), vehicle: Klucel (hydroxypropylcellulose) (HPC)"}, "[6]": {"conditions": "dose: 1600.0 mg/kg/injection, schedule: Q07DX002 (ip), vehicle: saline with Tween-80"}, "[7]": {"conditions": "dose: 200.0 mg/kg/injection, schedule: Q07DX002 (ip), vehicle: saline with Tween-80"}, "[8]": {"conditions": "dose: 800.0 mg/kg/injection, schedule: Q07DX002 (ip), vehicle: Klucel (hydroxypropylcellulose) (HPC)"}, "[9]": {"conditions": "dose: 50.0 mg/kg/injection, schedule: Q07DX002 (ip), vehicle: saline with Tween-80"}, "[10]": {"conditions": "dose: 8.0 mg/kg/injection, schedule: Q07DX002 (ip), vehicle: saline"}, "[11]": {"conditions": "dose: 140.0 mg/kg/injection, schedule: Q07DX002 (ip), vehicle: saline"}, "[12]": {"conditions": "dose: 25.0 mg/kg/injection, schedule: Q07DX002 (ip), vehicle: saline with Tween-80"}},
  "note": "The list shows only some results of the screen, not a fair sample: it is rich in T/C values a quarter to a half above the control, in often repeated tests (any T/C) and in doses without a T/C. Further doses and runs are listed elsewhere. T/C: endpoint of the treated group in % of that of the vehicle group. Schedules are NCI's codes, taken here to give the interval after Q, in days (D) or hours (H), and the number of doses after X. Some T/C values carry the count of animals alive at the toxicity check (mostly the fifth day); where none is given, no animal had died by that day. Some entries hold several experiments; their values stand side by side, smallest first. Counts like (3×) say how often a value occurs here. Some entries give survivors of the animals treated and no T/C: the source files T/C as zero there, which appears to mark a toxic dose or a test without result, not a measured value. Survivors were counted at the toxicity check, usually on the fifth day, unless a day is given; later deaths do not show.",
  "data": [
    {"smiles": "S=c1nc[nH]c2nc[nH]c12", "values": [
      {"measurement": "T/C", "setting": "[1]", "result": "18, 26, 39, 54, 58, 79, 98, 107, 124, 127 % of control"},
      {"measurement": "survivor count", "setting": "[1]", "result": "3 of 10 on day 20"},
      {"measurement": "T/C", "setting": "[2]", "result": "16 [7 of 10 alive on day 20], 16 [9 of 10 alive on day 20], 20, 27, 38, 40, 44, 46 [9 of 10 alive on day 20], 76, 82 % of control"},
      {"measurement": "survivor count", "setting": "[2]", "result": "5 of 9 on day 20"},
      {"measurement": "T/C", "setting": "[3]", "result": "3 [7 of 10 alive on day 20], 4, 5 [7 of 10 alive on day 20], 6, 9, 28 % of control"},
      {"measurement": "survivor count", "setting": "[3]", "result": "1 of 10 on day 20, 2 of 10 on day 20, 4 of 10 on day 20, 6 of 10 on day 20"},
      {"measurement": "T/C", "setting": "[4]", "result": "5 [7 of 10 alive on day 20] and 34 % of control [7 of 10 alive on day 20]"},
      {"measurement": "survivor count", "setting": "[4]", "result": "0 of 10 on day 20, 1 of 10 on day 20, 3 of 10 on day 20, 4 of 10 on day 20"},
      {"measurement": "survivor count", "setting": "[5]", "result": "0 of 10 on day 20, 1 of 9 on day 20, 2 of 10 on day 20, 4 of 10 on day 20"}
    ]},
    {"smiles": "S=C(NCNC(=S)c1ccncc1)c1ccncc1", "values": [
      {"measurement": "T/C", "setting": "[6]", "result": "128 % of control [9 of 10 alive on day 20]"}
    ]},
    {"smiles": "CCCCCC1c2cc(O)ccc2OC1N1CCOCC1", "note": "(stereo unspecified)", "values": [
      {"measurement": "T/C", "setting": "[7]", "result": "127 % of control"}
    ]},
    {"smiles": "O=C(O)c1cc(Cc2ccc(O)c(C(=O)O)c2)ccc1O", "note": "(tested in a mixture with another compound)", "values": [
      {"measurement": "survivor count", "setting": "[8]", "result": "2 of 10 on day 20"}
    ]},
    {"smiles": "CC(=O)N(C)O", "values": [
      {"measurement": "T/C", "setting": "[9]", "result": "144 % of control"}
    ]},
    {"smiles": "O=C1SC(c2ccccc2)=S=C1c1ccccc1", "values": [
      {"measurement": "survivor count", "setting": "[6]", "result": "4 of 10 on day 20"}
    ]},
    {"smiles": "C#CCNC1=C(C)C(=O)C2=C(C1=O)[C@H](COC(N)=O)[C@]1(OC)[C@@H]3N[C@@H]3CN21", "values": [
      {"measurement": "survivor count", "setting": "dose: 24.0 mg/kg/injection, schedule: Q07DX002 (ip), vehicle: distilled water + Tween-80", "result": "0 of 10 on day 20"}
    ]},
    {"smiles": "CNC(=O)c1cccc2c(Nc3ccc(NS(C)(=O)=O)cc3OC)c3cccc(C)c3nc12", "values": [
      {"measurement": "survivor count", "setting": "dose: 100.0 mg/kg/injection, schedule: Q07DX002 (ip), vehicle: water", "result": "0 of 10 on day 20"}
    ]},
    {"smiles": "CCN(CC)CCOCCO", "values": [
      {"measurement": "T/C", "setting": "dose: 200.0 mg/kg/injection, schedule: Q07DX002 (ip), vehicle: suspension in saline", "result": "125 % of control"},
      {"measurement": "survivor count", "setting": "dose: 400.0 mg/kg/injection, schedule: Q07DX002 (ip), vehicle: suspension in saline", "result": "5 of 10 on day 20"},
      {"measurement": "survivor count", "setting": "dose: 800.0 mg/kg/injection, schedule: Q07DX002 (ip), vehicle: suspension in saline", "result": "0 of 10 on day 20"}
    ]},
    {"smiles": "CO[C@@]12[C@H](COC(N)=O)C3=C(C(=O)C(C)=C(N)C3=O)N1C[C@@H]1N[C@@H]12", "values": [
      {"measurement": "survivor count", "setting": "dose: 4.0 mg/kg/injection, schedule: Q07DX002 (ip), vehicle: saline", "result": "6 of 10 on day 20"},
      {"measurement": "survivor count", "setting": "[10]", "result": "0 of 10 on day 20 and 1 of 10 on day 20"},
      {"measurement": "survivor count", "setting": "dose: 16.0 mg/kg/injection, schedule: Q07DX002 (ip), vehicle: saline", "result": "0 of 10 on day 20"}
    ]},
    {"smiles": "CCCCCNc1ncnc2c(C)[nH]nc12", "values": [
      {"measurement": "survivor count", "setting": "[5]", "result": "0 of 10 on day 20"},
      {"measurement": "survivor count", "setting": "[8]", "result": "0 of 10 on day 20"}
    ]},
    {"smiles": "c1ccc([C@H]2CN3CCSC3=N2)cc1", "values": [
      {"measurement": "T/C", "setting": "dose: 5.0 mg/kg/injection, schedule: Q07DX002 (ip), vehicle: saline", "result": "80, 87, 91, 110, 112, 113, 117 [9 of 10 alive on day 20], 145 % of control"},
      {"measurement": "T/C", "setting": "dose: 10.0 mg/kg/injection, schedule: Q07DX002 (ip), vehicle: saline", "result": "64, 80, 97, 103, 103 [9 of 10 alive on day 20], 109 [9 of 10 alive on day 20], 114, 116 % of control [9 of 10 alive on day 20]"},
      {"measurement": "T/C", "setting": "dose: 20.0 mg/kg/injection, schedule: Q07DX002 (ip), vehicle: saline", "result": "53, 79, 92 [9 of 10 alive on day 20], 95 [8 of 10 alive on day 20], 96, 106 (2×), 127 % of control"},
      {"measurement": "T/C", "setting": "dose: 40.0 mg/kg/injection, schedule: Q07DX002 (ip), vehicle: saline", "result": "46, 65, 81, 86 [9 of 10 alive on day 20], 101 [7 of 10 alive on day 20], 106 [8 of 10 alive on day 20], 106 [9 of 10 alive on day 20], 113 % of control [9 of 10 alive on day 20]"},
      {"measurement": "survivor count", "setting": "dose: 80.0 mg/kg/injection, schedule: Q07DX002 (ip), vehicle: saline", "result": "0 of 10 on day 20"}
    ]},
    {"smiles": "O=c1[nH]cc(F)c(=O)[nH]1", "values": [
      {"measurement": "T/C", "setting": "dose: 8.7 mg/kg/injection, schedule: Q07DX002 (ip), vehicle: saline", "result": "11 [9 of 10 alive on day 20], 79, 84, 98, 133, 176 % of control"},
      {"measurement": "T/C", "setting": "dose: 17.5 mg/kg/injection, schedule: Q07DX002 (ip), vehicle: saline", "result": "33, 36, 55 [9 of 10 alive on day 20], 103, 109, 126, 165 % of control"},
      {"measurement": "T/C", "setting": "dose: 35.0 mg/kg/injection, schedule: Q07DX002 (ip), vehicle: saline", "result": "30, 33, 33 [8 of 10 alive on day 20], 44, 58, 72 [9 of 10 alive on day 20], 120 % of control"},
      {"measurement": "T/C", "setting": "dose: 70.0 mg/kg/injection, schedule: Q07DX002 (ip), vehicle: saline", "result": "1, 16, 24, 29, 32, 38, 47 % of control"},
      {"measurement": "T/C", "setting": "[11]", "result": "3, 4 [8 of 10 alive on day 20], 4 % of control [9 of 10 alive on day 20]"},
      {"measurement": "survivor count", "setting": "[11]", "result": "2 of 10 on day 20, 5 of 10 on day 20, 6 of 10 on day 20"}
    ]},
    {"smiles": "C[CH2][Sn]([CH2]C)([CH2]C(=O)OC)[CH2]C(=O)OC", "values": [
      {"measurement": "survivor count", "setting": "[12]", "result": "4 of 10 on day 20"},
      {"measurement": "survivor count", "setting": "[9]", "result": "0 of 10 on day 20"},
      {"measurement": "survivor count", "setting": "dose: 100.0 mg/kg/injection, schedule: Q07DX002 (ip), vehicle: saline with Tween-80", "result": "0 of 10 on day 20"},
      {"measurement": "survivor count", "setting": "[7]", "result": "0 of 10 on day 20"},
      {"measurement": "survivor count", "setting": "dose: 400.0 mg/kg/injection, schedule: Q07DX002 (ip), vehicle: saline with Tween-80", "result": "0 of 10 on day 20"}
    ]},
    {"smiles": "N=C(N)CCCCCCCCC(=N)N", "values": [
      {"measurement": "survivor count", "setting": "[2]", "result": "2 of 10 on day 20"}
    ]},
    {"smiles": "CCN(CC)c1ccc2[nH]c3c(C(N)=O)cc(=O)c(=O)c=3oc2c1", "values": [
      {"measurement": "T/C", "setting": "[12]", "result": "130 % of control"},
      {"measurement": "T/C", "setting": "[9]", "result": "129 % of control"}
    ]},
    {"smiles": "COC(=O)C[C@](O)(CCC(C)(C)O)C(=O)O[C@@H]1C(OC)=C[C@]23CCCN2CCc2cc4c(cc2[C@H]13)OCO4", "values": [
      {"measurement": "survivor count", "setting": "[10]", "result": "0 of 10 on day 20"}
    ]},
    {"smiles": "O=c1[nH]c(=O)n([C@H]2CCCO2)cc1F", "values": [
      {"measurement": "survivor count", "setting": "dose: 1280.0 mg/kg/injection, schedule: Q07DX003 (ip), vehicle: Klucel (hydroxypropylcellulose) (HPC)", "result": "1 of 10 on day 20"}
    ]},
    {"smiles": "N=c1c(C(=O)OCc2ccccc2)ncc(CCl)n1O", "values": [
      {"measurement": "T/C", "setting": "[7]", "result": "127 % of control"}
    ]}
  ]
}
